The source gives many values for each of these; only a part stands here.
System: CVD (CHD or stroke)
Experiment: WOSCOPS: SNP by pravastatin treatment interaction, logistic regression (synergy index), CVD endpoint
Format: in vivo, human
Source text: CARE was a secondary prevention trial and WOSCOPS was a primary prevention trial.
The CHD endpoint was defined in the analyses herein of CARE as a composite endpoint of fatal CHD, definite non-fatal MI, or revascularization, and was defined in the analyses herein of WOSCOPS as a composite endpoint of death from CHD, nonfatal MI, or revascularization. In both the CARE and WOSCOPS analyses herein, the CVD endpoint was defined as a composite endpoint of CHD or stroke. […] Revascularization, which can include percutaneous transluminal coronary angioplasty (PTCA), stent placement, and coronary artery bypass graft (CABG), are medical interventions that indicate the presence of CHD.
Cohort and case-only study designs were used to identify SNPs associated with response to statin treatment.
For each SNP, a logistic regression model having treatment status as the dependent variable and SNP as the independent predictor variable was performed, with terms for age, sex and race included in the model as covariates. The anti-log of the regression coefficient corresponding to the SNP is an estimate of the synergy index (SI) (Davis et al., “Imputing gene-treatment interactions when the genotype distribution is unknown using case-only and putative placebo analyses-a new method for the Genetics of Hypertension Associated Treatment (GenHAT) study”, Statistics in Medicine 23: (2004), pages 2413-2427). The SI is a ratio of odds ratios: for example in the CARE and WOSCOPS studies, the SI represents the factor by which the odds-ratio of statin treatment, compared with placebo, among major homozygous individuals is multiplied by in order to obtain the odds-ratio of treatment vs. placebo among heterozygous individuals; and multiplied by a second time to obtain the odds-ratio of treatment vs. placebo in minor homozygous individuals. […] In a randomized clinical trial, genotype and treatment are independent by design.

CC[C@H](C)C(=O)O[C@H]1C[C@H](O)C=C2C=C[C@H](C)[C@H](CC[C@@H](O)C[C@@H](O)CC(=O)O)[C@H]21 [Pravastatin, pravastatin]
OR (rs2063591 allele C DOM, Imputed): 0.6108
OR (rs2095586 allele A DOM, Imputed): 1.458
OR (rs2095606 allele A DOM, Imputed): 0.6502
OR (rs2102374 allele A ADD, Imputed): 0.7364
OR (rs2102374 allele A DOM, Imputed): 0.6065
OR (rs2108426 allele C DOM, Imputed): 0.6887
OR (rs2110664 allele A DOM, Imputed): 1.806
OR (rs2132242 allele A ADD, Imputed): 0.6841
OR (rs2132242 allele A DOM, Imputed): 0.62
OR (rs2158958 allele A DOM, Imputed): 0.6887
OR (rs2158961 allele G DOM, Imputed): 0.7035
OR (rs2163046 allele A DOM, Imputed): 1.511
OR (rs2180286 allele G DOM, Imputed): 0.7195
OR (rs2180684 allele A DOM, Imputed): 1.612
OR (rs2188079 allele C ADD, Imputed): 1.535
OR (rs2190598 allele T DOM, Imputed): 0.6887
OR (rs2190600 allele A DOM, Imputed): 0.6884
OR (rs2224184 allele T DOM, Genotyped): 0.7175
OR (rs2247066 allele A DOM, Imputed): 0.6603
OR (rs2248236 allele C ADD, Imputed): 0.7444
OR (rs2248236 allele C DOM, Imputed): 0.6416
OR (rs2265733 allele C ADD, Imputed): 0.7364
OR (rs2265733 allele C DOM, Imputed): 0.6065
OR (rs2270584 allele A ADD, Imputed): 0.6858
OR (rs2270584 allele A DOM, Imputed): 0.6021
OR (rs2270586 allele A ADD, Imputed): 0.6858
OR (rs2270586 allele A DOM, Imputed): 0.6021
OR (rs2317057 allele T ADD, Imputed): 0.7197
OR (rs2322100 allele T REC, Genotyped): 2.767
OR (rs2322101 allele A REC, Imputed): 2.779
OR (rs2327929 allele G REC, Imputed): 1.493
OR (rs2332844 allele A ADD, Imputed): 1.78
OR (rs2332844 allele A REC, Imputed): 1.78
OR (rs2349170 allele G DOM, Imputed): 1.327
OR (rs2356722 allele G DOM, Imputed): 0.6675
OR (rs2364956 allele T ADD, Imputed): 1.693
OR (rs2373793 allele G ADD, Imputed): 1.58
OR (rs2373793 allele G DOM, Imputed): 1.878
OR (rs2383903 allele G DOM, Imputed): 0.6499
OR (rs2387945 allele G DOM, Imputed): 1.335
OR (rs7032231, allele A (A1), model ADD, Imputed, WOSCOPS): 1.467
OR (rs7067638, allele T (A1), model DOM, Imputed, WOSCOPS): 1.82
OR (rs7077799, allele A (A1), model DOM, Imputed, WOSCOPS): 1.458
OR (rs7082163, allele A (A1), model ADD, Imputed, WOSCOPS): 1.817
OR (rs7082163, allele A (A1), model DOM, Imputed, WOSCOPS): 1.875
OR (rs7089661, allele C (A1), model DOM, Imputed, WOSCOPS): 1.458
OR (rs7101319, allele C (A1), model ADD, Imputed, WOSCOPS): 1.817
OR (rs7101319, allele C (A1), model DOM, Imputed, WOSCOPS): 1.875
OR (rs7134262, allele T (A1), model REC, Imputed, WOSCOPS): 1.627
OR (rs7138300, allele C (A1), model ADD, Imputed, WOSCOPS): 0.7714
OR (rs7138300, allele C (A1), model DOM, Imputed, WOSCOPS): 0.5986
OR (rs7163931, allele G (A1), model REC, Imputed, WOSCOPS): 3.183
OR (rs7171486, allele G (A1), model DOM, Genotyped, WOSCOPS): 0.5774
OR (rs7172611, allele G (A1), model REC, Imputed, WOSCOPS): 3.183
OR (rs7172689, allele T (A1), model REC, Imputed, WOSCOPS): 3.183
OR (rs7180245, allele A (A1), model REC, Imputed, WOSCOPS): 3.183
OR (rs7220603, allele A (A1), model ADD, Genotyped, WOSCOPS): 0.6302
OR (rs7282518, allele T (A1), model ADD, Imputed, WOSCOPS): 1.518
OR (rs7283476, allele T (A1), model ADD, Imputed, WOSCOPS): 0.6337
OR (rs7283476, allele T (A1), model DOM, Imputed, WOSCOPS): 0.6518
OR (rs7298255, allele A (A1), model ADD, Imputed, WOSCOPS): 0.7591
OR (rs7298255, allele A (A1), model DOM, Imputed, WOSCOPS): 0.594
OR (rs7305832, allele C (A1), model REC, Imputed, WOSCOPS): 1.616
OR (rs7392620, allele C (A1), model ADD, Imputed, WOSCOPS): 0.7494
OR (rs7446891, allele G (A1), model DOM, Imputed, WOSCOPS): 0.6887
OR (rs7448641, allele C (A1), model ADD, Imputed, WOSCOPS): 0.309
OR (rs7448641, allele C (A1), model DOM, Imputed, WOSCOPS): 0.309
OR (rs7499402, allele A (A1), model ADD, Genotyped, WOSCOPS): 1.39
OR (rs7529851, allele A (A1), model ADD, Imputed, WOSCOPS): 0.6637
OR (rs7573951, allele G (A1), model ADD, Imputed, WOSCOPS): 0.6931
OR (rs7599198, allele T (A1), model DOM, Imputed, WOSCOPS): 0.5474
OR (rs7600050, allele C (A1), model ADD, Imputed, WOSCOPS): 1.511
OR (rs7607712, allele T (A1), model ADD, Imputed, WOSCOPS): 1.551
OR (rs7607712, allele T (A1), model DOM, Imputed, WOSCOPS): 1.544
OR (rs7621663, allele G (A1), model ADD, Imputed, WOSCOPS): 1.447
OR (rs7621663, allele G (A1), model REC, Imputed, WOSCOPS): 1.785
OR (rs7626584, allele G (A1), model ADD, Imputed, WOSCOPS): 0.5782
OR (rs7684899, allele C (A1), model ADD, Imputed, WOSCOPS): 0.7399
OR (rs7684899, allele C (A1), model DOM, Imputed, WOSCOPS): 0.6359
OR (rs7701604, allele G (A1), model ADD, Imputed, WOSCOPS): 0.309
OR (rs7701604, allele G (A1), model DOM, Imputed, WOSCOPS): 0.309
OR (rs7703676, allele C (A1), model ADD, Imputed, WOSCOPS): 0.309
OR (rs7703676, allele C (A1), model DOM, Imputed, WOSCOPS): 0.309
OR (rs7708491, allele C (A1), model REC, Imputed, WOSCOPS): 0.5862
OR (rs7711358, allele A (A1), model DOM, Imputed, WOSCOPS): 0.7035
OR (rs7719448, allele G (A1), model REC, Imputed, WOSCOPS): 0.5823
OR (rs7724761, allele T (A1), model REC, Imputed, WOSCOPS): 0.5608
OR (rs7742476, allele T (A1), model DOM, Imputed, WOSCOPS): 1.408
OR (rs7762993, allele A (A1), model ADD, Imputed, WOSCOPS): 1.384
OR (rs7762993, allele A (A1), model DOM, Imputed, WOSCOPS): 1.506
OR (rs7767265, allele G (A1), model ADD, Imputed, WOSCOPS): 1.375
OR (rs7767265, allele G (A1), model DOM, Imputed, WOSCOPS): 1.584
OR (rs7768128, allele G (A1), model REC, Imputed, WOSCOPS): 0.4807
OR (rs7771264, allele T (A1), model DOM, Imputed, WOSCOPS): 0.5289
OR (rs7773151, allele C (A1), model DOM, Genotyped, WOSCOPS): 0.5304
OR (rs7773210, allele A (A1), model DOM, Genotyped, WOSCOPS): 0.5304
OR (rs7808536, allele G (A1), model DOM, Imputed, WOSCOPS): 1.939
OR (rs7843510, allele G (A1), model DOM, Genotyped, WOSCOPS): 1.603
OR (rs7902140, Imputed, allele C, ADD model, WOSCOPS): 0.622
OR (rs7921834, Imputed, allele C, DOM model, WOSCOPS): 1.351
OR (rs7939893, Imputed, allele C, ADD model, WOSCOPS): 0.8314
OR (rs7939893, Imputed, allele C, DOM model, WOSCOPS): 0.6782
OR (rs7955901, Imputed, allele C, ADD model, WOSCOPS): 0.7632
OR (rs7955901, Imputed, allele C, DOM model, WOSCOPS): 0.5772
OR (rs7956274, Imputed, allele T, ADD model, WOSCOPS): 0.7489
OR (rs7956274, Imputed, allele T, DOM model, WOSCOPS): 0.571
OR (rs7957932, Imputed, allele G, ADD model, WOSCOPS): 0.7622
OR (rs7957932, Imputed, allele G, DOM model, WOSCOPS): 0.5724
OR (rs7984294, Imputed, allele A, DOM model, WOSCOPS): 1.992
OR (rs7994286, Imputed, allele A, ADD model, WOSCOPS): 0.5714
OR (rs7994286, Imputed, allele A, DOM model, WOSCOPS): 0.5491
OR (rs8038229, Genotyped, allele A, ADD model, WOSCOPS): 0.6055
OR (rs8038229, Genotyped, allele A, DOM model, WOSCOPS): 0.534
OR (rs8043336, Imputed, allele C, REC model, WOSCOPS): 0.3477
OR (rs8054431, Imputed, allele T, DOM model, WOSCOPS): 2.022
OR (rs8066502, Imputed, allele T, DOM model, WOSCOPS): 0.6823
OR (rs8068714, Imputed, allele T, DOM model, WOSCOPS): 0.7037
OR (rs9301653, Imputed, allele T, ADD model, WOSCOPS): 0.5758
OR (rs9301653, Imputed, allele T, DOM model, WOSCOPS): 0.554
